Results as given in PubChem BioAssay AID493014 (National Center for Advancing Translational Sciences (NCATS), 2011).
The list shows a part of the results. These are further read-outs of the screen, such as a control signal, another cell line or another target. No call is given for them. Most of these compounds were active or inconclusive in the main read-out, so they are no random draw. Potencies come from curve fits of mixed quality, noted in brackets.

Test: qHTS Assay to Find Inhibitors of Chronic Active B-Cell Receptor Signaling
Details: ABC-DLBCL IkBa-CBG/CBR reporter, luminescence ratio (green luciferase fused to IkBa over red control in TMD8 lymphoma cells), 4 h
Procedure, shortened: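 Doxycycline induced both beetle luciferases in TMD8 lymphoma cells; IKK-driven degradation limits the IkappaBalpha-fused green signal, while red luminescence normalises for cell number and nonspecific effects. Compounds tested up to 46 uM, 4 hrs.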

[1] = measured here: CBR red luminescence, cell number

## O=C1CC(N2CCCc3ccccc32)C(=O)N1c1ccccc1Cl (configuration not stated)
[1]
  AC50: 7.31 µM [falling, partial curve]

## COCCCNC(=O)CSC1=Nc2ccccc2C2=NC(Cc3c[nH]c4ccccc34)C(=O)N12 (configuration not stated)
[1]
  AC50: 14.1 µM [falling, partial curve, poor fit]

## CC(=O)c1ccc(NS(=O)(=O)c2ccc(-c3cnc(C4CC4)o3)cc2)cc1
[1]
  AC50: 20 µM [falling, single point]

## Cc1ccc(Cn2nnnc2CN2CCC(O)(c3ccc(F)cc3)CC2)cc1
[1]
  AC50: 15.8 µM [falling, partial curve, poor fit]

## CCC1CCCCN1S(=O)(=O)c1cc(C(=O)Nc2ccc(C)c(F)c2)ccc1F (configuration not stated)
[1]
  AC50: 1.26 µM [falling, full curve, poor fit]

## COc1cc(NC(=O)Cn2c(=O)n(CC3CCCO3)c(=O)c3ccccc32)cc(OC)c1 (configuration not stated)
[1]
  AC50: 20 µM [falling, partial curve, poor fit]

## Cc1ccc(-n2ncc(C(=O)Nc3cc(Cl)cc(Cl)c3)c2C2CCNCC2)cc1C
[1]
  AC50: 1.41 µM [rising, full curve, poor fit]
Measured here: IkBa-CBG green luminescence
  AC50: 22.4 µM [falling, single point]

## Cc1cccc(C(=O)N[C@H](C(=O)Nc2cccc(S(=O)(=O)N3CCCC3)c2)C(C)C)c1
[1]
  AC50: 10 µM [falling, partial curve, poor fit]

## O=C(CSc1nnc(-c2ccccc2)o1)Nc1ccccc1F
[1]
  AC50: 4.61 µM [falling, full curve]

## COc1ccc(N(CC(=O)N2CCN(Cc3ccc4c(c3)OCO4)CC2)S(=O)(=O)c2ccc(F)cc2)cc1
[1]
  AC50: 0.891 µM [rising, partial curve, poor fit]

## CC(C)COc1ccc(-c2nn(-c3ccccc3)cc2C(=O)Nc2nccs2)cc1
[1]
  AC50: 3.26 µM [falling, partial curve, poor fit]

## O=C(CS(=O)(=O)c1ccc(Cl)c(Cl)c1)Nc1ccccc1Cl
[1]
  AC50: 1.64 µM [falling, partial curve, poor fit]

## Cc1cc(C)nc(SCc2nnc(SCC(=O)Nc3ncc(C)s3)n2Cc2ccco2)n1
[1]
  AC50: 7.31 µM [falling, partial curve, poor fit]

## COc1ccc(C(=O)COC(=O)C2CCCN2C(=O)C23CC4CC(CC(C4)C2)C3)cc1 (configuration not stated)
[1]
  AC50: 18.4 µM [falling, partial curve, poor fit]

## O=C(CN1CCN(Cc2ccc(F)cc2Cl)C1=O)NCc1cccs1
[1]
  AC50: 0.562 µM [rising, partial curve, poor fit]

## O=[N+]([O-])c1ccccc1OCCCN1CCOCC1
[1]
  AC50: 0.501 µM [rising, full curve, poor fit]
